This assay has as its system HEK293A TEAD-LUC reporter. Briefly: TEAD-luciferase reporter activity (YAP activation), robust Z score vs plate; higher = stronger YAP/TEAD activation. Conditions: 24 h. (In general: In a reporter assay the amount or activity of a reporter protein is the signal.)

The other results are listed elsewhere or left out. Repeats in this data set agree poorly, so a single value says little.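 In a drug-repurposing library screen, luminescence reads luciferase driven by eight TEAD-binding elements, stably integrated into human kidney-derived cells. Compounds scoring over five robust Z scores above the plate mean are called hits.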

In the case of `COC(=O)[C@H]1[C@H]2C[C@@H]3c4[nH]c5cc(OC)ccc5c4CCN3C[C@H]2C[C@@H](OC(=O)c2cc(OC)c(OC)c(OC)c2)[C@@H]1OC` [Reserpine], the TEAD-luciferase reporter activity is inactive: -1.32 (compound concentration: 200 nM), inactive: -1.29 (compound concentration: 2 uM) and inactive: -0.302 (compound concentration: 10 uM).

As for `NC(CS)C(=O)O` (stereo unspecified) [cysteine], the TEAD-luciferase reporter activity (compound concentration: 2 uM) is inactive: -1.71.

For the molecule `NC(CS)C(=O)O` (stereo unspecified) [cysteine, Bio3], the TEAD-luciferase reporter activity is, setting by setting: (compound concentration: 200 nM) inactive: 3.52; (compound concentration: 10 uM) inactive: -0.891.

In the case of `CC1=C(CC/C(C)=C/C=C/C(C)=C/C(=O)O)C(C)(C)CCC1` [Pharmaprojects No. 697], the TEAD-luciferase reporter activity is, setting by setting: (compound concentration: 200 nM) inactive: 0.0603; (compound concentration: 2 uM) inactive: -1.15; (compound concentration: 10 uM) inactive: 0.874.

For `Nc1ncc2ncn(CC3(OCP(=O)(O)O)CC3)c2n1`, the TEAD-luciferase reporter activity by setting is: (compound concentration: 200 nM) inactive: -0.332; (compound concentration: 10 uM) inactive: 0.807.

Turning to `CSCC[C@H](NC(=O)[C@H](CC(=O)O)NC(=O)[C@H](CC(C)C)NC(=O)[C@H](CCSC)NC(=O)[C@@H]1CCCN1C(=O)[C@@H](NC(=O)[C@H](Cc1ccc(O)cc1)NC(=O)[C@H](CC(=O)O)NC(=O)[C@@H](NC(=O)[C@H](CO)NC(=O)[C@H](CCC(=O)O)NC(=O)[C@H](CC(=O)O)NC(=O)[C@H](CCCCN)NC(=O)[C@H](CO)NC(=O)[C@H](CCSC)NC(=O)[C@@H](N)CC(=O)O)C(C)C)C(C)C)C(=O)N[C@@H](CCCCN)C(=O)O`, the TEAD-luciferase reporter activity was inactive: -0.0189 (compound concentration: 200 nM), inactive: -0.424 (compound concentration: 2 uM) and inactive: 0.366 (compound concentration: 10 uM).

In the case of `Cc1nc(N2CCOC[C@@H]2C)nc(-n2ccnc2)c1[N+](=O)[O-]`, the TEAD-luciferase reporter activity (compound concentration: 200 nM) was inactive: -0.839, the TEAD-luciferase reporter activity (compound concentration: 2 uM) is inactive: -0.00538 and the TEAD-luciferase reporter activity (compound concentration: 10 uM) is inactive: -0.111.

Regarding `Cc1cccc(Nc2ccncc2S(=O)(=O)NC(=O)NC(C)C)c1`, the TEAD-luciferase reporter activity was inactive: -1.29 (compound concentration: 200 nM) and inactive: -1.99 (compound concentration: 10 uM).

`Cc1cccc(Nc2ccncc2S(=O)(=O)NC(=O)NC(C)C)c1` [torasemide ER]: the TEAD-luciferase reporter activity (compound concentration: 2 uM) was inactive: -1.38.

With `CCOC(=O)C(=O)Nc1cc(C#N)cc(NC(=O)C(=O)OCC)c1Cl` [Lodoxamide ethyl], the TEAD-luciferase reporter activity (compound concentration: 200 nM) was inactive: 0.483, the TEAD-luciferase reporter activity (compound concentration: 2 uM) was inactive: -0.747 and the TEAD-luciferase reporter activity (compound concentration: 10 uM) was inactive: 2.18.

For `COC(=O)N[C@H](C(=O)NCCCCC(CO)N(CC(C)C)S(=O)(=O)c1ccc(N)cc1)C(c1ccccc1)c1ccccc1` (stereo partly specified), the TEAD-luciferase reporter activity was inactive: -1.47 (compound concentration: 200 nM), inactive: -1.55 (compound concentration: 2 uM) and inactive: -1.57 (compound concentration: 10 uM).

On to `O=c1cc(-c2ccc(O)c(-c3c(O)cc(O)c4c(=O)cc(-c5ccc(O)cc5)oc34)c2)oc2cc(O)cc(O)c12`, for which the TEAD-luciferase reporter activity was inactive: -0.267 (compound concentration: 200 nM), inactive: 1.09 (compound concentration: 2 uM) and inactive: 0.851 (compound concentration: 10 uM).

Turning to `COc1ccc(OC2CN(CC3CCCCC3)C2)cc1`, the TEAD-luciferase reporter activity (compound concentration: 200 nM) is inactive: 0.0385 and the TEAD-luciferase reporter activity (compound concentration: 10 uM) was inactive: -0.0203.

Regarding `C=Cc1cc(C(=O)Nc2ccc(C(=N)N)cc2)c(-c2ccc(C(=O)NCC3CC3)nc2C(=O)O)cc1OC` [Avoralstat], the TEAD-luciferase reporter activity (compound concentration: 200 nM) was inactive: -1.16, the TEAD-luciferase reporter activity (compound concentration: 2 uM) was inactive: 1.29 and the TEAD-luciferase reporter activity (compound concentration: 10 uM) is inactive: 0.328.

Consider `Cn1nnnc1C(/C=C/C(O)CC(O)CC(=O)O)=C(c1ccc(F)cc1)c1ccc(F)cc1` (stereo unspecified), for which the TEAD-luciferase reporter activity is inactive: -1.4 (compound concentration: 200 nM), inactive: -1.4 (compound concentration: 2 uM) and inactive: 0.131 (compound concentration: 10 uM).

On to `CC(C)OC(=O)CCC/C=C\C[C@@H]1[C@@H](/C=C/[C@@H](O)COc2cccc(C(F)(F)F)c2)[C@H](O)C[C@@H]1O` [travoprost 0.004%], for which the TEAD-luciferase reporter activity (compound concentration: 2 uM) is inactive: -0.771.

Regarding `CC(C)OC(=O)CCC/C=C\C[C@@H]1[C@@H](/C=C/[C@@H](O)COc2cccc(C(F)(F)F)c2)[C@H](O)C[C@@H]1O` [travoprost 0.004%, Alcon], the TEAD-luciferase reporter activity (compound concentration: 200 nM) was inactive: -0.928 and the TEAD-luciferase reporter activity (compound concentration: 10 uM) was inactive: -0.773.

For `O=C([C@H](O)CS(=O)(=O)c1ccc2cc(Cl)ccc2c1)N1CCC(N2CCCNC2=O)CC1`, the TEAD-luciferase reporter activity runs as follows: (compound concentration: 200 nM) inactive: -0.0686; (compound concentration: 2 uM) inactive: 0.367; (compound concentration: 10 uM) inactive: -1.08.

In the case of `CN1CCN(c2ccc(N3C[C@H](CO)OC3=O)cc2F)C=N1`, the TEAD-luciferase reporter activity reads like this: (compound concentration: 200 nM) inactive: -1.86; (compound concentration: 2 uM) inactive: 1.28; (compound concentration: 10 uM) inactive: -1.6.

In the case of `CC(O)(CC(=O)O)CC(=O)O` [meglutol], the TEAD-luciferase reporter activity reads like this: (compound concentration: 200 nM) inactive: 0.574; (compound concentration: 2 uM) inactive: 0.55; (compound concentration: 10 uM) inactive: 1.18.

As to `COc1ccc(Cc2cccc(-c3c(O)c4ccc(Cl)cc4[nH]c3=O)c2)cc1`, the TEAD-luciferase reporter activity is inactive: 0.672 (compound concentration: 200 nM), inactive: -0.803 (compound concentration: 2 uM) and inactive: 1.97 (compound concentration: 10 uM).

`CC(=O)N[C@H]1[C@H](Oc2ccc3c(C)cc(=O)oc3c2)O[C@H](CO)[C@@H](O)[C@@H]1O`: the TEAD-luciferase reporter activity runs as follows: (compound concentration: 200 nM) inactive: -0.78; (compound concentration: 2 uM) inactive: -1.09.

For `Cc1noc(C)c1NC(=O)c1ccc2c(c1)OCCCO2`, the TEAD-luciferase reporter activity (compound concentration: 200 nM) is inactive: -1.31, the TEAD-luciferase reporter activity (compound concentration: 2 uM) is inactive: -0.496 and the TEAD-luciferase reporter activity (compound concentration: 10 uM) was inactive: -1.27.

As for `COc1cccc(-c2nccc3nc(O)c(-c4noc(C)n4)cc23)c1` [Radequinil], the TEAD-luciferase reporter activity is inactive: -0.994 (compound concentration: 200 nM), inactive: -1.27 (compound concentration: 2 uM) and inactive: 1.74 (compound concentration: 10 uM).

Consider `CCOC(=O)C1CCN(c2nc(N(C)S(=O)(=O)c3ccc(F)cc3)ccc2[N+](=O)[O-])CC1`, for which the TEAD-luciferase reporter activity is, setting by setting: (compound concentration: 200 nM) inactive: -1.1; (compound concentration: 2 uM) inactive: 0.13; (compound concentration: 10 uM) inactive: 1.6.

Take `CC(C)CC(=O)N[C@H](C(=O)N[C@H](C(=O)N[C@@H](CC(C)C)[C@@H](O)CC(=O)N[C@@H](C)C(=O)N[C@@H](CC(C)C)[C@@H](O)CC(=O)O)C(C)C)C(C)C`: the TEAD-luciferase reporter activity is, setting by setting: (compound concentration: 200 nM) inactive: 1.56; (compound concentration: 2 uM) inactive: -0.168; (compound concentration: 10 uM) inactive: -0.711.

With `COc1cccc(C(=O)N(C)Cc2ccc(-c3ccccc3)cc2)c1`, the TEAD-luciferase reporter activity is, setting by setting: (compound concentration: 200 nM) inactive: 4.73; (compound concentration: 10 uM) inactive: 1.62.

For `CNS(=O)(=O)c1cc(OC)c(OC)c(C(=O)NC[C@H]2CCCN2C)c1` [sulverapride], the TEAD-luciferase reporter activity by setting is: (compound concentration: 200 nM) inactive: -0.44; (compound concentration: 2 uM) inactive: 0.407; (compound concentration: 10 uM) inactive: -0.274.

The values above are taken from the supplement of paper PMC10735217.
